Experimental data from paper PMC10893636, “Synergistic enhancement of the mouse Pramex1 and Pramel1 in repressing retinoic acid (RA) signaling during gametogenesis” (Cell & Bioscience, 2024).
No constants are given. Whether binding was seen depends on the method and setting. In cells and extracts the contact can be indirect.

Chains of the proteins cited; added tags and fusions are not shown. Lines headed by an entry give the natural chain unless they say otherwise; changes in a name come on top.
UniProt F7ADI6: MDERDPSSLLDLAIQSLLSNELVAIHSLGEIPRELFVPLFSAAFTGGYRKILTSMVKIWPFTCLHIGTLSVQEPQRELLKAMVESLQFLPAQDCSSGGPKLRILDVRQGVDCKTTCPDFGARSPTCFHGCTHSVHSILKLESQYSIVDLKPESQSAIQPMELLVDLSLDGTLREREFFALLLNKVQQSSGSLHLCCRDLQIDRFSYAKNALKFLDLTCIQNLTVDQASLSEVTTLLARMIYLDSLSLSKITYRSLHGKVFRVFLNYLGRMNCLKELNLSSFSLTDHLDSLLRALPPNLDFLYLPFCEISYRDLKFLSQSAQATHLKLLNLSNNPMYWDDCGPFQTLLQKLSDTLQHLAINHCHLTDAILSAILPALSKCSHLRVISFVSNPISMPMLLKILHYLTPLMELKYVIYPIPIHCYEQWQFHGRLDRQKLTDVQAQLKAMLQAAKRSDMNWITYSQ
UniProt Q9Z2C8: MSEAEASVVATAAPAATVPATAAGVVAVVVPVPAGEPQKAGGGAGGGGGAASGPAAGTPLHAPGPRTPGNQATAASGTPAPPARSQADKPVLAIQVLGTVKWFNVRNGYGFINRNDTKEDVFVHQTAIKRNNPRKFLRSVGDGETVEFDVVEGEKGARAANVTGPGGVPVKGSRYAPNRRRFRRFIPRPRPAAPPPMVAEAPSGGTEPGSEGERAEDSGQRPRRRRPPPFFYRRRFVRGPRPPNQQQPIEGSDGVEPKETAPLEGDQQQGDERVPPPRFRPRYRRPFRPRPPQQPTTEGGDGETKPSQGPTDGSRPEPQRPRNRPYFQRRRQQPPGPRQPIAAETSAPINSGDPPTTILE

Biological target: PRAMEX1 (Prame like, X-linked 1) (mouse (endogenous in testis)) (UniProt F7ADI6)
Test: co-IP; anti-PRAMEX1 or anti-RARα antibody immobilised on protein A/G magnetic beads (Pierce Crosslink Magnetic IP/co-IP Kit); P7 testis proteins of WT, Pramex1 sKO and Pramel1 sKO mice, overnight at 4 °C; Western blot, band intensity relative to input (set as 1), n = 3

binding: no binding
Substance: Y-Box Binding Protein 2 (YBX2) (from UniProt Q9Z2C8 1-360)
